These are yes or no findings as the source states them, for the method shown. In cells and extracts the contact can be indirect. Sequences can lack the tags named with a protein.
Target: T1, Tom71-HA (S. cerevisiae) (UniProt P38825)
T1 sequence: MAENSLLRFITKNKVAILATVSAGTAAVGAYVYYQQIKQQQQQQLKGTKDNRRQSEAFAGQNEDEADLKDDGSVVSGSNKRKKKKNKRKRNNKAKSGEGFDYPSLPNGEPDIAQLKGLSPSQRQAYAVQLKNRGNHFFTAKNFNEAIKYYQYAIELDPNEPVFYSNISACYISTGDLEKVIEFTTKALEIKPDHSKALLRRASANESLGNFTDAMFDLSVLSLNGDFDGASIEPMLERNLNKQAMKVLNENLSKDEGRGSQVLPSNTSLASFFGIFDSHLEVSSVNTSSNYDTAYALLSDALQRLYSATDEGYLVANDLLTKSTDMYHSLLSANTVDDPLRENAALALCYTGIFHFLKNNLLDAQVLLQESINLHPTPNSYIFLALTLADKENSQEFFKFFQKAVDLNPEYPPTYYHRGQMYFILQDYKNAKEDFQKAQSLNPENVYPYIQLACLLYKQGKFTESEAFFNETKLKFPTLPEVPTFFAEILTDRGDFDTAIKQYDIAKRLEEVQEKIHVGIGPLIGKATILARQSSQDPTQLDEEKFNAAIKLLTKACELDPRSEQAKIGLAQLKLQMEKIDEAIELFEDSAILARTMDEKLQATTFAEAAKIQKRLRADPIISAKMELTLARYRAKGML
Test: co-IP; tom70Δ yeast cells expressing Flag-Pex19 alone or with Tom71-HA; whole cell lysate solubilised with 1% Triton X-100, incubated with anti-HA magnetic beads 2 h at 4 °C; wash with TBS, 0.5% Triton X-100, 5 mM EDTA, 350 mM NaCl; immunoblot of input, unbound and eluate

binding: no binding
B1: Flag-Pex19 (protein, UniProt Q07418 1-342)
chain: MNENEYDNFDDLDDLLDEDPTKLDEAEPDDVQAKGSVYNDSENKEKNAESKDSDGVQVANESEEDPELKEMMVDLQNEFANLMKNNGNENNVKTEDFNKLISALEEAAKVPHQQMEQGCSSLKSNSTDKGTVNGSNPGFKNIVSNTLDRLKENGNKVDTSLAEETKESQRSGQNNNIDDILSQLLDQMVASGGKESAENQFDLKDGEMDDAITKILDQMTSKEVLYEPMKEMRSEFGVWFQENGENEEHKEKIGTYKRQFNIVDEIVNIYELKDYDELKHKDRVTELLDELEQLGDSPIRSANSPLKHGNEEEELMKMLEIDGNDPNLGNLDKELTDGCKQQ

From publication PMC12116889
